Test results as given in patent CN116203146A.
Results are given in words; binding and its absence hold for the method and conditions named. Some results given as binding are weak or reduced against the parent protein; the word gives no strength.

By UniProt entry, the sequences of proteins in these tests, tags left out. Residues count along the entry.
UniProt Q8NHJ6, residues 22-259: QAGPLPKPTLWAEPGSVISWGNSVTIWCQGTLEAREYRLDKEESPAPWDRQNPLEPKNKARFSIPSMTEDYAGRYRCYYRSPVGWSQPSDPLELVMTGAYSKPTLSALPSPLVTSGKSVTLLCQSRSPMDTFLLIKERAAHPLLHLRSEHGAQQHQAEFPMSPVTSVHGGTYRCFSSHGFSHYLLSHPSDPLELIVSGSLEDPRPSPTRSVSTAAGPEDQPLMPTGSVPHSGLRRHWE

Molecular target: LILRB4抗原 (人LILRB4蛋白胞外段) (human) (UniProt Q8NHJ6)
Test: phage ELISA on coated LILRB4

Binder	binding
MA-Ⅰ 噬菌体单克隆抗体 (phage-displayed single-chain antibody) (scFv, V domains shown) VH: EVQLQQSGGGLVKPGGSLKLSCAASGFTFSSYTMSWVRQTPEKRLEWVATISSGGTYTYYPDSVKGRFTISRDNAKNTLYLQMSSLKSEDTAMYYCTRDGYDGFDYWGQGTTLTVSS VL: DIVMTQTTLSLPVSPGDQASISCRSSQSLAHSNGNTYLHWYLQKPGQSPKLLIYKVSNRFSGVPDRFSGSGSGTDFTLKISRVEAEDLGVYFCSQSTLVPTFGGGTKLEIK	binds
MB-Ⅰ 噬菌体单克隆抗体 (phage-displayed single-chain antibody) (scFv, V domains shown) VH: QVQLQESGAELVKPGASVKLSCKASGYTFTNYWMHWVKQRPGQGLEWIGEINPSNGRTNYNEKFKTKATLTVDKSSSTAYMQLSSLTSEDSAVYYCARWGQLGLREGYYAVDYWGQGTSVTVSS VL: DIVMTQSPSSLSASLGDRVTISCRASQDISNYLNWYQQKPDGTVKLLIYYTSRLHSGVPSRFSGSGSGTDYSLTISNLEQEDIATYFCQQGNTLPPTFGGGTKLEIK	binds
